Residue numbers refer to the chain shown, from its start. No constants are given. Whether binding was seen depends on the method and setting. Some entries that bind do so weakly or less than the wild type. For part of these data: Sequences can lack the tags named with a protein.
B1: Active TCE EGFR-C7v119-6His (designed binder)
chain: MGSDLGYKLLRAAFHGQDDEVRILLAAGADVNAKDLIGQTPLHNAAWVGHLEIVEVLLKAGADVNAKDYYGNTPLHLAAHDGHLEIVEVLLKAGADVNAQDTWGETPADLATNAGHEDIAEVLQKAAGSPTPTPTTPTPTPTTPTPTPTGSDLGQKLLEAAWAGQDDEVRELLKAGADVNAKNSRGWTPLHTAAQTGHLEIFEVLLKAGADVNAKDDKGVTPLHLAAALGHLEIVEVLLKAGADVNAQDSWGTTPADLAAKYGHEDIAEVLQKAAGSHHHHHH
notes: Bispecific ankyrin repeat protein; also called active TCE (C7v119 comprising construct); anti-EGFR x anti-CD3
B2: Active TCE EGFR-C7v122-6His (designed binder)
chain: B1 chain with D216N, G219R, Q248R, E265Q
notes: Bispecific ankyrin repeat protein; also called active TCE (C7v122 comprising construct); anti-EGFR x anti-CD3
B3: anti-EGFR DARPin (biotinylated, monovalent EGFR-specific ankyrin repeat domain) (designed binder)
chain: MGSDLGYKLLRAAFHGQDDEVRILLAAGADVNAKDLIGQTPLHNAAWVGHLEIVEVLLKAGADVNAKDYYGNTPLHLAAHDGHLEIVEVLLKAGADVNAQDTWGETPADLATNAGHEDIAEVLQKAA
modifications: biotinylated (site not stated)

Protein sequences, listed by entry. Tags and fused reporters are not part of them. Lines headed by an entry give the natural chain unless they say otherwise; changes in a name come on top.
UniProt P07766: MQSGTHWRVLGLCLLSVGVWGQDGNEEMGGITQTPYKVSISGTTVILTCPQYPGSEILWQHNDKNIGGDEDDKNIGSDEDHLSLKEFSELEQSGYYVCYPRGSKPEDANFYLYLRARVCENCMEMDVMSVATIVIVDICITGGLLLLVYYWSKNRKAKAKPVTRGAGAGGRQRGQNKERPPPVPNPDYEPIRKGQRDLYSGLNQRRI

Columns and labels:
human CD3 on T cells [1] = molecular target: T1, human CD3 on T cells (human, UniProt P07766 23-207; P09693 23-182; P04234 22-171); assay: flow cytometry on Jurkat wt cells
human CD3 on T cells [2] = molecular target: T1, human CD3 on T cells; assay: flow cytometry on Jurkat cells, detection with anti-DARPin antibodies and anti-rabbit IgG Alexa Fluor 488, MFI [column T-cell binding]
[3] = molecular target: recombinant human EGFR extracellular domain (human) (UniProt P00533); assay: SPR
[4] = molecular target: recombinant mouse EGFR extracellular domain (mouse) (UniProt Q01279); assay: SPR

Row | Binder | binding (human CD3 on T cells [1]) | binding (human CD3 on T cells [2]) | binding [3] | binding [4]
1 | B1 | binds | binds | – | –
2 | B2 | binds | binds | – | –
3 | B3 | – | – | binds | binds

— patent US20240156980A1 (Molecular Partners, published 2024)
